# Source: patent publication US11472862B2, “IL13Rα2 peptide and its uses” (priority 2017, dated 2022)
# Not every detail of the peptide structures is certain; ends, links or a residue may be inferred. Residues, ends and D or L forms follow the SMILES beside them.
# Test system: KM12SM cells
# Assay: Metastasis experiment in nude mice, Kaplan-Meier survival after intrasplenic inoculation
# Assay type: in vivo, Swiss nude mice
# Conditions: peptide 1 μg/ml with the cells, n=5
# Description: FIG. 6. D1 and D-D1 peptides increase the survival of mice inoculated with metastatic tumor cells and inhibits glioblastoma xenografts. (A) Liver homing experiment. Metastatic KM12SM cells were treated with the IL13 and/or D1 peptide and inoculated in spleen of nude mice. […] (C) 10^7 U251 cells were inoculated subcutaneously into the flanks of mice. Eleven days after cell inoculation, when tumours reached a size of 100 mm^3, mice were treated with D-D1 peptide (3 μg/100 μL of PBS) subcutaneously or with saline solution in a total of 7 doses during 15 days. Tumours were measured every 2-3 days. **p<0.01 vs control.
# Binding of D1 peptide to IL-13 was monitored by surface plasmon resonance on a BIAcore 3000 instrument (BIAcore Inc, Switzerland). IL-13 was covalently amino coupled to a CM-5 sensor chip. An immobilization level of 7700 RU was obtained. […] The interaction between D1 peptide and the immobilized IL13 was determined by changes in the RU at different D1 concentrations. […] Cell proliferation was determined by absorbance at 560 nm and comparison with control cells collected ab initium. […] Bound cells were lysed with 1% SDS in PBS, and the extent of the adhesion was quantified using a fluorescence analyzer (POLARstar Galaxy, BMG Labtechnologies). […] Effective migration speed was calculated from the distance covered by cells in 24 h in each side of the wound. […]
smiles,measurement,setting,value
"CC[C@H](C)[C@H](NC(=O)[C@@H](NC(=O)[C@H](CCCCN)NC(=O)[C@H](Cc1c[nH]c2ccccc12)NC(=O)[C@@H](NC(=O)[C@H](CCC(=O)O)NC(=O)[C@H](CO)NC(=O)CN)[C@@H](C)O)[C@@H](C)O)C(=O)N[C@H](C(=O)N[C@H](C(=O)N[C@@H](CCCCN)C(=O)N[C@@H](CC(N)=O)C(=O)O)[C@@H](C)O)[C@@H](C)CC [D1 peptide, GSETWKTIITKN] (H-GSETWKTIITKN-OH)","Mouse survival, cells inoculated with peptide, without further treatment",,modest increase in survival
same,"Mouse survival, cells inoculated with peptide plus intravenous peptide treatment",then 7 i.v. doses of 3 μg over 2 weeks,no effect was observed after treatment
